Test results from PubChem BioAssay AID248 (DTP/NCI, 2004).
The list shows only some results of the screen, not a fair sample: it is rich in T/C values a quarter to a half above the control, in often repeated tests (any T/C) and in doses without a T/C. Other doses and runs of a compound stand elsewhere. T/C gives the treated animals as a percentage of the vehicle group. Some doses have a count of surviving animals in place of a T/C: the source holds a T/C of zero for them, seemingly a mark for toxic or unscored doses. Some survivor counts are full or nearly so, which does not show that the dose was tolerated: survival well below the control is almost never listed, so the zero probably covers shortened survival too. Counts of survivors are from the toxicity check (mostly the fifth day) where no day follows; animals may have died later. Schedules are NCI's codes, read here as Q, the interval in days (D) or hours (H), X, the number of doses. Some entries hold several experiments; the values are given in rising order. Some schedules carry Z or #; the key to these is not given. Where survival is the endpoint, the PubChem record calls one and a half times the control and up active, and a quarter to a half above the control has no call in these data; cut-offs in other NCI protocols can differ. Some T/C values carry the count of animals alive at the toxicity check (mostly the fifth day); where none is given, no animal had died by that day. Signs of the kind (2×) stand for listed records that agree.

Test system: L1210 leukemia ip in BDF1 mice, survival T/C
Test: NCI In Vivo Anticancer Drug Screen. Data for tumor model L1210 Leukemia (intraperitoneal) in B6D2F1 (BDF1) mice
Conditions: higher T/C = longer survival
[1] = T/C endpoint: mean survival time, dose: 200.0 mg/kg/injection, schedule: Q01DX005 (ip), vehicle: saline

How did the T/C (T/C endpoint: mean survival time, dose: 100.0 mg/kg/injection, schedule: Q01DX Z (ip), vehicle: other) turn out when Nc1nc2n[nH]nc2c(=O)[nH]1 was run?
Its T/C is 116, 125, 131, 136 % of control.

And the survivor count (T/C endpoint: mean survival time, dose: 100.0 mg/kg/injection, schedule: Q01DX Z (oral), vehicle: other)?
Its survivor count is 5 of 6.

And the survivor count (T/C endpoint: mean survival time, dose: 100.0 mg/kg/injection, schedule: Q01DX Z (oral), vehicle: water)?
The survivor count was 6 of 6.

What about the T/C (T/C endpoint: mean survival time, dose: 117.0 mg/kg/injection, schedule: Q01DX001 (ip), vehicle: carboxymethylcellulose (CMC)) of the same compound?
Its T/C is 136 % of control.

And the T/C (T/C endpoint: mean survival time, dose: 125.0 mg/kg/injection, schedule: Q01DX001 (ip), vehicle: carboxymethylcellulose (CMC), evaluated on day 40)?
The T/C was 148 % of control.

And the T/C (T/C endpoint: mean survival time, dose: 125.0 mg/kg/injection, schedule: Q01DX001 (ip), vehicle: carboxymethylcellulose (CMC), evaluated on day 60)?
Its T/C is 135 % of control.

And the T/C (T/C endpoint: mean survival time, dose: 125.0 mg/kg/injection, schedule: Q06DX003 (ip), vehicle: carboxymethylcellulose (CMC))?
Its T/C is 137 % of control.

And the T/C (T/C endpoint: mean survival time, dose: 125.0 mg/kg/injection, schedule: Q08DX003 (ip), vehicle: carboxymethylcellulose (CMC))?
The T/C was 144 % of control.

And the T/C (T/C endpoint: mean survival time, dose: 125.0 mg/kg/injection, schedule: Q10DX003 (ip), vehicle: carboxymethylcellulose (CMC))?
Its T/C is 127 % of control.

And the T/C (T/C endpoint: mean survival time, dose: 128.0 mg/kg/injection, schedule: Q## X024 (ip), vehicle: other)?
Its T/C is 143 % of control.

What about the T/C (T/C endpoint: mean survival time, dose: 150.0 mg/kg/injection, schedule: Q01DX005 (ip), vehicle: other) of the same compound?
The T/C was 140 % of control.

What about the T/C (T/C endpoint: mean survival time, dose: 150.0 mg/kg/injection, schedule: Q01DX009 (ip), vehicle: other) of the same compound?
The T/C was 148 % of control.

And the T/C (T/C endpoint: mean survival time, dose: 150.0 mg/kg/injection, schedule: Q01DX Z (ip), vehicle: other)?
Its T/C is 127 % of control.

And the T/C (T/C endpoint: mean survival time, dose: 150.0 mg/kg/injection, schedule: Q03DX Z (ip), vehicle: water)?
The T/C was 134 % of control.

And the T/C (T/C endpoint: mean survival time, dose: 178.8 mg/kg/injection, schedule: Q01DX Z (ip), vehicle: carboxymethylcellulose (CMC))?
Its T/C is 145 % of control.

And the T/C (T/C endpoint: mean survival time, dose: 179.0 mg/kg/injection, schedule: Q01DX001 (ip), vehicle: carboxymethylcellulose (CMC))?
The T/C was 134 % of control.

What about the T/C (T/C endpoint: mean survival time, dose: 200.0 mg/kg/injection, schedule: Q01DX005 (ip), vehicle: saline with Tween-80) of the same compound?
Its T/C is 93, 110, 118, 120 [5 of 6 alive], 126, 128 [5 of 6 alive], 133, 135, 141, 143, 144, 146 (2×), 152, 155, 156, 161 [5 of 6 alive], 172, 180, 187, 191 % of control.

And the T/C [1]?
The T/C was 94 [6 of 7 alive], 95, 100, 101, 113, 115 [5 of 6 alive], 121, 122, 130, 134, 135, 141 (2×), 142, 143, 145, 146 (2×), 147, 148, 150 (2×), 153 (2×), 154 (2×), 156, 157 (3×), 158 (2×), 159, 160, 163 [5 of 6 alive] (2×), 166, 173, 174 (2×), 179, 194 % of control.

And the survivor count [1]?
The survivor count was 5 of 6, 6 of 6, 7 of 7.

What about the survivor count (T/C endpoint: mean survival time, dose: 200.0 mg/kg/injection, schedule: Q01DX009 (ip), vehicle: carboxymethylcellulose (CMC)) of the same compound?
The survivor count was 8 of 10.

And the survivor count (T/C endpoint: mean survival time, dose: 200.0 mg/kg/injection, schedule: Q01DX009 (ip), vehicle: saline)?
Its survivor count is 5 of 6.

What about the T/C (T/C endpoint: mean survival time, dose: 200.0 mg/kg/injection, schedule: Q01DX010 (ip), vehicle: alkali diluted with saline) of the same compound?
Its T/C is 115, 140, 140 [5 of 6 alive], 155 % of control.

What about the T/C (T/C endpoint: mean survival time, dose: 200.0 mg/kg/injection, schedule: Q01DX Z (ip), vehicle: other) of the same compound?
The T/C was 134 % of control.

And the survivor count (T/C endpoint: mean survival time, dose: 200.0 mg/kg/injection, schedule: Q01DX Z (oral), vehicle: other)?
Its survivor count is 1 of 6.

What about the survivor count (T/C endpoint: mean survival time, dose: 200.0 mg/kg/injection, schedule: Q01DX Z (oral), vehicle: water) of the same compound?
Its survivor count is 3 of 6.

What about the survivor count (T/C endpoint: mean survival time, dose: 200.0 mg/kg/injection, schedule: Q#A X Z (ip), vehicle: carboxymethylcellulose (CMC)) of the same compound?
Its survivor count is 5 of 5.

What about the survivor count (T/C endpoint: mean survival time, dose: 225.0 mg/kg/injection, schedule: Q01DX015 (ip), vehicle: clinical formulation) of the same compound?
Its survivor count is 0 of 6.

And the survivor count (T/C endpoint: mean survival time, dose: 225.0 mg/kg/injection, schedule: Q01DX015 (ip), vehicle: water)?
The survivor count was 3 of 6 and 4 of 6.

And the T/C (T/C endpoint: mean survival time, dose: 248.0 mg/kg/injection, schedule: Q## X024 (ip), vehicle: other)?
Its T/C is 147 % of control.

And the T/C (T/C endpoint: mean survival time, dose: 250.0 mg/kg/injection, schedule: Q01DX001 (ip), vehicle: carboxymethylcellulose (CMC), evaluated on day 40)?
The T/C was 146 % of control.

And the T/C (T/C endpoint: mean survival time, dose: 250.0 mg/kg/injection, schedule: Q01DX001 (ip), vehicle: carboxymethylcellulose (CMC), evaluated on day 60)?
Its T/C is 144 % of control.

And the T/C (T/C endpoint: mean survival time, dose: 250.0 mg/kg/injection, schedule: Q08DX003 (ip), vehicle: carboxymethylcellulose (CMC))?
The T/C was 147 % of control.

And the T/C (T/C endpoint: mean survival time, dose: 250.0 mg/kg/injection, schedule: Q10DX003 (ip), vehicle: carboxymethylcellulose (CMC))?
Its T/C is 132 % of control.

What about the T/C (T/C endpoint: mean survival time, dose: 267.0 mg/kg/injection, schedule: Q01DX001 (ip), vehicle: carboxymethylcellulose (CMC)) of the same compound?
The T/C was 137 % of control.

And the T/C (T/C endpoint: mean survival time, dose: 300.0 mg/kg/injection, schedule: Q01DX005 (ip), vehicle: other)?
Its T/C is 136 % of control.

What about the T/C (T/C endpoint: mean survival time, dose: 300.0 mg/kg/injection, schedule: Q01DX009 (ip), vehicle: other) of the same compound?
The T/C was 137 % of control [9 of 10 alive].

What about the survivor count (T/C endpoint: mean survival time, dose: 300.0 mg/kg/injection, schedule: Q01DX Z (im), vehicle: carboxymethylcellulose (CMC)) of the same compound?
Its survivor count is 6 of 6.

What about the survivor count (T/C endpoint: mean survival time, dose: 300.0 mg/kg/injection, schedule: Q01DX Z (ip), vehicle: carboxymethylcellulose (CMC)) of the same compound?
Its survivor count is 6 of 6.

What about the T/C (T/C endpoint: mean survival time, dose: 300.0 mg/kg/injection, schedule: Q02DX005 (ip), vehicle: carboxymethylcellulose (CMC)) of the same compound?
Its T/C is 136 % of control.

What about the T/C (T/C endpoint: mean survival time, dose: 400.0 mg/kg/injection, schedule: Q01DX001 (ip), vehicle: steroid suspending solution) of the same compound?
The T/C was 129 % of control.

And the survivor count (T/C endpoint: mean survival time, dose: 400.0 mg/kg/injection, schedule: Q01DX009 (ip), vehicle: water)?
The survivor count was 1 of 6 and 2 of 6.

What about the T/C (T/C endpoint: mean survival time, dose: 400.0 mg/kg/injection, schedule: Q01DX010 (ip), vehicle: alkali diluted with saline) of the same compound?
The T/C was 126 and 127 % of control.

What about the survivor count (T/C endpoint: mean survival time, dose: 400.0 mg/kg/injection, schedule: Q01DX Z (im), vehicle: carboxymethylcellulose (CMC)) of the same compound?
Its survivor count is 4 of 5.

And the survivor count (T/C endpoint: mean survival time, dose: 400.0 mg/kg/injection, schedule: Q01DX Z (ip), vehicle: carboxymethylcellulose (CMC))?
Its survivor count is 3 of 6.

What about the survivor count (T/C endpoint: mean survival time, dose: 400.0 mg/kg/injection, schedule: Q01DX Z (oral), vehicle: water) of the same compound?
The survivor count was 1 of 6.

And the T/C (T/C endpoint: mean survival time, dose: 500.0 mg/kg/injection, schedule: Q01DX001 (sc), vehicle: carboxymethylcellulose (CMC))?
The T/C was 139 % of control.

What about the T/C (T/C endpoint: mean survival time, dose: 500.0 mg/kg/injection, schedule: Q06DX003 (ip), vehicle: carboxymethylcellulose (CMC)) of the same compound?
Its T/C is 132 % of control.

What about the T/C (T/C endpoint: mean survival time, dose: 500.0 mg/kg/injection, schedule: Q08DX003 (ip), vehicle: carboxymethylcellulose (CMC)) of the same compound?
The T/C was 148 % of control.

What about the survivor count (T/C endpoint: mean survival time, dose: 500.0 mg/kg/injection, schedule: Q## X003 (ip), vehicle: carboxymethylcellulose (CMC)) of the same compound?
The survivor count was 5 of 10.

And the T/C (T/C endpoint: mean survival time, dose: 500.0 mg/kg/injection, schedule: Q## X024 (ip), vehicle: other)?
The T/C was 131 % of control.

And the survivor count (T/C endpoint: mean survival time, dose: 600.0 mg/kg/injection, schedule: Q02DX005 (ip), vehicle: carboxymethylcellulose (CMC))?
The survivor count was 7 of 10.

And the survivor count (T/C endpoint: mean survival time, dose: 700.0 mg/kg/injection, schedule: Q01DX001 (ip), vehicle: water)?
The survivor count was 0 of 6.

And the survivor count (T/C endpoint: mean survival time, dose: 700.0 mg/kg/injection, schedule: Q07DX Z (ip), vehicle: water)?
Its survivor count is 1 of 6.

And the T/C (T/C endpoint: mean survival time, dose: 750.0 mg/kg/injection, schedule: Q01DX001 (ip), vehicle: carboxymethylcellulose (CMC))?
The T/C was 132 % of control.

And the T/C (T/C endpoint: mean survival time, dose: 750.0 mg/kg/injection, schedule: Q06DX003 (ip), vehicle: carboxymethylcellulose (CMC))?
Its T/C is 139 % of control.

What about the T/C (T/C endpoint: mean survival time, dose: 750.0 mg/kg/injection, schedule: Q08DX003 (ip), vehicle: carboxymethylcellulose (CMC)) of the same compound?
The T/C was 136 % of control.

What about the survivor count (T/C endpoint: mean survival time, dose: 1000.0 mg/kg/injection, schedule: Q01DX001 (ip), vehicle: carboxymethylcellulose (CMC)) of the same compound?
Its survivor count is 6 of 10.

And the T/C (T/C endpoint: mean survival time, dose: 1000.0 mg/kg/injection, schedule: Q01DX001 (sc), vehicle: carboxymethylcellulose (CMC))?
Its T/C is 137 % of control.

And the survivor count (T/C endpoint: mean survival time, dose: 1000.0 mg/kg/injection, schedule: Q## X003 (ip), vehicle: carboxymethylcellulose (CMC))?
The survivor count was 0 of 10 and 3 of 10.

What about the T/C (T/C endpoint: median survival time, dose: 50.0 mg/kg/injection, schedule: Q01DX009 (ip), vehicle: other) of the same compound?
The T/C was 144 % of control.

And the T/C (T/C endpoint: median survival time, dose: 100.0 mg/kg/injection, schedule: Q01DX009 (ip), vehicle: other)?
The T/C was 144 % of control.
